# Measured values: PubChem BioAssay AID540276 (National Center for Advancing Translational Sciences (NCATS), 2011)
# Screen size: about 300,000 compounds; about 5,400 (1.8%) were called active. The inconclusive results got no clear call from the source; some entries with a clear call stand among them for comparison. Calls follow the shape of the full dose curve; tested in HEK293 cells. Potencies beside an inconclusive call are fits to weak or partial responses and may not hold up.
# Assay: qHTS for inhibitors of binding or entry into cells for Marburg Virus
# Conditions: Marburg virus pseudotyped entry inhibition, cell reporter; series mostly up to 37.8 µM
# Potency is read from the fitted curve at half-maximal effect.
row,Structure (SMILES),Potency
1,O=C(c1cc2ccccc2o1)N1CCN(S(=O)(=O)c2ccccc2)CC1,inactive
2,CC(=O)c1sc(NC(=O)CCS(=O)(=O)c2ccc(C)cc2)nc1C,"inconclusive: 11.2 µM [inhibitor, partial curve]"
3,Cc1[nH]n2c(=O)cc(-c3ccc(Cl)cc3)nc2c1-c1ccccc1,active: 11.2 µM
4,CC1=CCC2C(=O)N(C(C)c3ccccc3)C(=O)C2C1 (stereo not given),"inconclusive: 0.164 µM [activator, partial curve]"
5,Nc1ccc(O)c(-c2nc3ccccc3s2)c1,inactive
6,CC1=CC(=Nc2c(C)n(C)n(-c3ccccc3)c2=O)C=C(C)C1=O,"inconclusive: 7.08 µM [inhibitor, partial curve, poor fit]"
7,N#C/C(=C\c1cccc([N+](=O)[O-])c1)c1ccccn1,"inconclusive: 15.8 µM [inhibitor, single point]"
8,Cc1ccc(C(=O)NNc2ncnc3ccccc23)cc1,"inconclusive: 3.26 µM [inhibitor, full curve]"
9,CCOC(=O)/C=C/C(=O)Nc1cccc([N+](=O)[O-])c1,"inconclusive: 1.16 µM [activator, partial curve, poor fit]"
10,OC(COc1cccc2ccccc12)CN1CCCC1 (stereo not given),"inconclusive: 13 µM [inhibitor, single point]"
11,CC(=O)c1cccc(N(C(=O)c2ccccn2)C(C(=O)NC2CCCCC2)c2ccccc2)c1 (stereo not given),inactive
12,Cc1ccc(/C=C2\SC(=S)N(CCC(=O)NNS(=O)(=O)c3ccc(C)cc3)C2=O)cc1,"inconclusive: 5.62 µM [activator, single point]"
13,COc1ccccc1CNc1nc(-c2ccco2)nn1C(=O)c1cc(OC)c(OC)c(OC)c1,inactive
14,Cc1cc(SCC(=O)NCC(c2cccs2)N2CCOCC2)c(C)cc1Br (stereo not given),"inconclusive: 10 µM [inhibitor, partial curve, poor fit]"
15,CN(Cc1cnc2nc(N)nc(N)c2n1)c1ccc(C(=O)N[C@@H](CCC(=O)O)C(=O)O)cc1,active: 0.0398 µM
16,C#CC(C)(CC)NC(=O)Cn1nnc(-c2ccc(OCc3ccccc3C)cc2)n1 (stereo not given),inactive
17,COc1cc(CCC(=O)NNC(=O)c2ccc(C)cc2)cc(OC)c1OC,"inconclusive: 17.8 µM [inhibitor, single point]"
18,CC(C)CC(NC(N)=O)C(=O)Nc1ccc(Oc2ccccc2)cc1 (stereo not given),"inconclusive: 35.5 µM [inhibitor, partial curve, poor fit]"
19,CCCCNC(=O)c1cnc2n(c1=O)CCS2,inactive
20,Cc1cc(Cl)ccc1NC(=S)NCC(C)C,"inconclusive: 1 µM [activator, single point]"
21,CC(=O)c1sc(NC(=O)CS(=O)(=O)c2ccc(F)cc2)nc1C,"inconclusive: 5.62 µM [inhibitor, single point]"
22,N#C/C(=C(/O)c1ccc(C(=O)c2ccccc2)cc1)c1nc2ccccc2[nH]1,inactive

row,Structure (SMILES),Potency
1,CC(=O)Oc1ccc(C(=O)Nc2cc(C)ccc2NC(=O)COc2ccccc2)cc1,"inconclusive: 5.62 µM [inhibitor, single point]"
2,CC(=O)Nc1ccc(OS(=O)(=O)c2ccccc2C)cc1,"inconclusive: 2.24 µM [activator, partial curve, poor fit]"
3,COc1cc(-c2nc(SCC(=O)Nc3ccc(C)cc3)c(-c3ccc(F)cc3)[nH]2)cc(OC)c1OC,"inconclusive: 22.4 µM [inhibitor, single point]"
4,COc1cc(/C=C(\C#N)c2nc3ccccc3[nH]2)ccc1OCc1ccc(F)cc1,"inconclusive: 35.5 µM [inhibitor, partial curve, poor fit]"
5,COC(=O)CCC(=O)NC(=S)Nc1ccc(S(=O)(=O)Nc2cc(OC)nc(OC)n2)cc1,inactive
6,CNc1ccc(Br)cc(C(=O)/C=C/c2ccc(OC)cc2OC)c1=O,inactive
7,Cc1ccc(CSCCNC(=O)CSc2ccccc2)cc1,"inconclusive: 35.5 µM [activator, partial curve, poor fit]"
8,COc1cc(N2CCCC2)c(OC)cc1/C=C(/C#N)c1ccc(Br)cc1,"inconclusive: 9.2 µM [inhibitor, partial curve, poor fit]"
9,O=C1CC(=C2c3ccccc3-c3ccccc32)C(=O)N1CCN1CCN(c2cccc(Cl)c2)CC1,"inconclusive: 14.6 µM [activator, single point]"
10,CCC(C)(C)NC(=O)CSc1nc(Cc2ccccc2)nc2ccccc12,"inconclusive: 14.1 µM [inhibitor, single point]"
11,Cc1ccc(NC(=O)C2(NC(=O)c3cccc(N4C(=O)CSC4c4ccccc4)c3)CCCCC2)cc1 (stereo not given),"inconclusive: 20.6 µM [inhibitor, single point]"
12,CC(C)(C)NC(=O)CN(Cc1ccc2c(c1)OCO2)C(=O)CNS(=O)(=O)c1ccc(F)cc1,inactive
13,O=C(Nc1scc(-c2ccc(Br)cc2)c1C(=O)O)c1ccccc1F,active: 3.16 µM
14,Nc1ccc(NC(=O)c2cccc(C(=O)Nc3ccc(N)cc3Cl)c2)c(Cl)c1,"inconclusive: 0.631 µM [inhibitor, full curve, poor fit]"
15,CCC(c1ccccc1)c1nc(-c2cccnc2)no1 (stereo not given),inactive
16,Cc1nn2c(NCC(C)C)c3c(nc2c1-c1ccccc1)CCC3,"inconclusive: 29.1 µM [inhibitor, single point]"
17,COc1ccc(OC)c(NC(=O)CSc2nnc(-c3ccco3)n2-c2ccc(C(=O)O)cc2)c1,inactive
18,COc1cccc(C2(O)CCN(C(=O)C3CCC3)CC2)c1,"inconclusive: 7.94 µM [inhibitor, partial curve, poor fit]"
19,Cc1sc2nc(SCC(=O)NCc3ccco3)n(-c3ccccc3)c(=O)c2c1C,"inconclusive: 25.9 µM [inhibitor, partial curve, poor fit]"
20,CC(=O)N1CCc2cc(S(=O)(=O)NCCC(=O)N3CCN(Cc4ccccc4)CC3)ccc21,inactive
21,CC(C)(C)C(=O)[C@@H]1[C@@H]2C(=O)N(C3CCCCC3)C(=O)[C@@H]2[C@H]2c3ccccc3C=CN12,inactive
22,COc1ccc(C(=O)c2sc(Nc3ccccc3)nc2C)cc1,"inconclusive: 0.631 µM [inhibitor, partial curve, poor fit]"

row,Structure (SMILES),Potency
1,Cc1ccc(C)c(SCC(=O)OCC(=O)N2CC(C)OC(C)C2)c1 (stereo not given),"inconclusive: 0.631 µM [activator, full curve, poor fit]"
2,Cc1ccc(S(=O)(=O)NC(CC(C)C)C(=O)N2CC(C)OC(C)C2)cc1 (stereo not given),"inconclusive: 35.5 µM [activator, single point]"
3,Cc1nc2scc(C)n2c(=O)c1S(=O)(=O)Nc1ccc(N2CCN(S(C)(=O)=O)CC2)cc1,"inconclusive: 15.8 µM [inhibitor, single point]"
4,CCOC(=O)N1CCN(S(=O)(=O)c2ccc(C(=O)NNc3nc4cc(C)cc(C)c4s3)cc2)CC1,active: 20.6 µM
5,CC(=O)N1CCc2c(sc3nc(SCC(C)C)n(-c4ccc(C)c(Cl)c4)c(=O)c23)C1,"inconclusive: 14.1 µM [inhibitor, single point]"
6,Cc1ccc(-c2nnc(Nc3ccc(OC(F)(F)Cl)cc3)c3ccccc23)cc1S(=O)(=O)NC(C)(C)CO,"inconclusive: 2.82 µM [inhibitor, partial curve, poor fit]"
7,N#Cc1c(NC(=O)Cn2nc(C(F)(F)F)c3c2CCCC3)sc2c1CCC2,"inconclusive: 14.6 µM [inhibitor, partial curve, poor fit]"
8,O=C(O)C(O)(c1ccccc1)C(O)c1ccccc1 (stereo not given),"inconclusive: 12.6 µM [activator, single point]"
9,CC(C)(C)c1ccc(/C=N/NC(=O)Cc2c[nH]c3ccccc23)cc1,active: 14.6 µM
10,O=C(Nc1ccc(Cl)cc1)NC1CCCCNC1=O (stereo not given),"inconclusive: 11.2 µM [activator, partial curve, poor fit]"
11,CCN(CC)CCNC(=O)Cn1c(=O)c2cccn2c2ccc(F)cc21,"inconclusive: 35.5 µM [activator, single point]"
12,COc1ccc(NC(=O)Nc2ccc(Br)c(C)c2)cc1,"inconclusive: 3.55 µM [activator, partial curve, poor fit]"
13,Cc1ccc2nc(NC(=O)C3CCN(S(=O)(=O)c4cccc5nsnc45)CC3)sc2c1,"inconclusive: 35.5 µM [inhibitor, single point]"
14,CC(CN1CCCCC1)c1ccccc1 (stereo not given),inactive
15,O=C(Nc1cccc(NC(=O)c2ccc([N+](=O)[O-])o2)c1)c1ccco1,"inconclusive: 12.6 µM [inhibitor, partial curve, poor fit]"
16,O=C(O)c1ccccc1C(=O)c1ccc2c(c1)N(Cc1ccc(Cl)c(Cl)c1)C(=O)CO2,"inconclusive: 8.91 µM [inhibitor, partial curve, poor fit]"
17,O=c1cc(C(F)(F)F)c2cc3c4c(c2o1)CCCN4CCC3,inactive
18,CCCCNC(=O)c1cn(-c2ccc(OCC)cc2)c(=O)c2cc(OC)c(OC)cc12,"inconclusive: 6.51 µM [inhibitor, single point]"
19,CCCC(=O)Nc1ccc(-c2csc(N/N=C\c3ccncc3)n2)cc1,"inconclusive: 10 µM [inhibitor, partial curve, poor fit]"
20,Cc1ccc(S(=O)(=O)NNC(=O)c2cccs2)c(C)c1,"inconclusive: 35.5 µM [activator, single point]"
21,COCCn1c(SCC(=O)Nc2ccc3[nH]c(=O)[nH]c3c2)nc2ccccc21,"inconclusive: 0.794 µM [activator, full curve, poor fit]"

# 3 entries drawn at random from the list so far:
row,Structure (SMILES),Potency
9,O=C1CC(=C2c3ccccc3-c3ccccc32)C(=O)N1CCN1CCN(c2cccc(Cl)c2)CC1,"inconclusive: 14.6 µM [activator, single point]"
20,Cc1cc(Cl)ccc1NC(=S)NCC(C)C,"inconclusive: 1 µM [activator, single point]"
13,Cc1ccc2nc(NC(=O)C3CCN(S(=O)(=O)c4cccc5nsnc45)CC3)sc2c1,"inconclusive: 35.5 µM [inhibitor, single point]"
